These are yes or no findings as the source states them, for the method shown. In cells and extracts the contact can be indirect. Some results given as binding are weak or reduced against the parent protein; the word gives no strength. For part of these data: Sequences can lack the tags named with a protein. Each block holds one molecule with its values, some of them ahead of it.
Assays:
[1] = target: T1, HA-tagged ODAM (UniProt A1E959); test: co-IP; lysates of co-transfected ALCs (RIPA buffer); IP with anti-HA, anti-FLAG or anti-ARHGEF5 antibody, protein A/G-agarose, 4 °C; Western blot with anti-ARHGEF5 or anti-HA
T1 sequence: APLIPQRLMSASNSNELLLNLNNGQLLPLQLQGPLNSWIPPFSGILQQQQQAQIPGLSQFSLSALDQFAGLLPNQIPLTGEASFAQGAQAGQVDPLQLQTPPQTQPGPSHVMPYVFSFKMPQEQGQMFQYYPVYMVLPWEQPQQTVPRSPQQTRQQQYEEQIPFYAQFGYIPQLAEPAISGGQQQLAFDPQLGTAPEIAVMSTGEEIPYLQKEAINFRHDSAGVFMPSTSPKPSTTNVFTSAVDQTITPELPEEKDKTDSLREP

[2] = target: T2, odontogenic ameloblast-associated protein (ODAM), endogenous in ALCs (not stated (endogenous in ALCs; the paper does not name the species of the cell line)) (UniProt A1E960); test: co-IP; endogenous proteins in ALC lysate (RIPA buffer: 50 mM Tris-Cl pH 7.5, 150 mM NaCl, 1% Nonidet P-40, 1 mM EDTA); IP with anti-ODAM antibody, protein A/G-agarose, 4 °C; Western blot with anti-ARHGEF5
T2 sequence: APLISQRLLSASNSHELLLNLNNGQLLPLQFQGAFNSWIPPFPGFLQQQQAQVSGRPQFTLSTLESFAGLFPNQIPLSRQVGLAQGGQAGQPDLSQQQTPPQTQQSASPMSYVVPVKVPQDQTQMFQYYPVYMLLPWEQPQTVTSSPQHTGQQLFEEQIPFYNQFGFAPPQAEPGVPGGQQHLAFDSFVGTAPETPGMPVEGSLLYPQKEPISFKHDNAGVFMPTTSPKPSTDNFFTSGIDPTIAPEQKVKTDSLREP

[3] = target: T3, His-ODAM C-terminal protein (UniProt A1E959); test: pull-down; lysate of ALCs transfected with the FLAG-ARHGEF5 SH domain (RIPA buffer) incubated 1 h at 30 °C with His-ODAM C-terminal protein; captured with anti-His antibody and protein A/G-agarose at 4 °C; Western blot with anti-FLAG; only the target purified
T3 sequence: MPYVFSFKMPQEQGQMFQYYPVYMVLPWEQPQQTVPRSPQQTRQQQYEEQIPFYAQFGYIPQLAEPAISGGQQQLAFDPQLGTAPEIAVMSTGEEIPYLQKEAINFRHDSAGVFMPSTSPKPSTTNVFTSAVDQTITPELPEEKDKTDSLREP

binding [1]: binds
Molecule: ARHGEF5, transfected construct (from UniProt E9Q7D5 1-1581)

binding [2]: binds
Molecule: Rho guanine nucleotide exchange factor 5 (ARHGEF5), endogenous in ALCs (from UniProt E9Q7D5 1-1581)

binding [3]: binds
B1: FLAG-ARHGEF5 mutant containing only the SH domain (amino acids 1489-1581) (domain or fragment, UniProt E9Q7D5 1489-1581)
chain: DLLECYDSPQVQCLRAYKPRENDELALEKADVVMVTQQSSDGWLEGVRLSDGEQGWFPVQQVEFISNPEVRAQNLKEAHRVKTAKLQLVEQQV
